The target of one assay is Flag-tagged Nuf2 (human) (UniProt Q9BZD4). Nature of the assay: co-IP; anti-Flag antibody and Dynabeads Protein G from lysates of UTA6 Flag-EB1 or UTA6 Flag-Nuf2 cells, 4°C, eluted with 3xFlag peptide, fluorescent immunoblot; cells DMA-arrested (prometaphase) or released from DMA for 45 min (anaphase).
A further assay addresses Flag-tagged EB1 (human) (UniProt Q15691). Described as above.

Chains of the proteins cited; added tags and fusions are not shown.
UniProt Q9BZD4: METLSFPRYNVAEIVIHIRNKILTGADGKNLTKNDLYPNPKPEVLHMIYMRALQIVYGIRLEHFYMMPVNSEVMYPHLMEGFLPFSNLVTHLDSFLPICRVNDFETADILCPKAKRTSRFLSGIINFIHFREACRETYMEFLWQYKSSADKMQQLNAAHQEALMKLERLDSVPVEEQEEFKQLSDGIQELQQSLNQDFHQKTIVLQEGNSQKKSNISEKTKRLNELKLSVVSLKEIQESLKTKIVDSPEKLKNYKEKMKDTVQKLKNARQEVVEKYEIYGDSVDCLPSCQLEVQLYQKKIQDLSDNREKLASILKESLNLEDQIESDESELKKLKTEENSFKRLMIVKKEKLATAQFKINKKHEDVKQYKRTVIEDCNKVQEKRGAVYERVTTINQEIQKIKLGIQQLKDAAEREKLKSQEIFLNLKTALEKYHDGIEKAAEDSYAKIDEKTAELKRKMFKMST
UniProt Q15691: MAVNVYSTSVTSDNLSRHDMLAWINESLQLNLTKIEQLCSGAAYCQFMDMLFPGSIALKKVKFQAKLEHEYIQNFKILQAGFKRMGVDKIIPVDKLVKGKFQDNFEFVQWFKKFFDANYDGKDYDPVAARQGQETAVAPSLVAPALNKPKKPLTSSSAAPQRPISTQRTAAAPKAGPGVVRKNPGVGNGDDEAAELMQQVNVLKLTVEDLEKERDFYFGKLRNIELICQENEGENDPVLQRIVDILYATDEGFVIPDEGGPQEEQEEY

These are yes or no findings as the source states them, for the method shown. Binding seen in cells or lysates may run through a third protein. Some results given as binding are weak or reduced against the parent protein; the word gives no strength.

With “p150 (DCTN1) (from UniProt Q14203-1 1-1278)”, the binding entry is reported as “no binding” with Flag-tagged Nuf2 (human) and “binds” with Flag-tagged EB1 (human).
